These results are taken from PubChem BioAssay AID330 (DTP/NCI, 2004).

The list shows only some results of the screen, not a fair sample: it gathers tests that were run many times, whatever their T/C, doses with no T/C, and many T/C values between a quarter and a half above the control. Other doses and runs of a compound stand elsewhere. T/C: endpoint of the treated group in % of that of the vehicle group. Some doses have a count of surviving animals in place of a T/C: the source holds a T/C of zero for them, seemingly a mark for toxic or unscored doses. Some survivor counts are full or nearly so, which does not show that the dose was tolerated: survival well below the control is almost never listed, so the zero probably covers shortened survival too. Survivors were counted at the toxicity check, usually on the fifth day, unless a day is given; later deaths do not show. Schedules are NCI's codes, read here as Q, the interval in days (D) or hours (H), X, the number of doses. Some entries were tested several times; their values stand side by side, smallest first. Where survival is the endpoint, this PubChem deposit counts one and a half times the control or more as active, and values a quarter to a half above the control carry no call in these data; other NCI protocols may use other cut-offs. Some T/C values carry the count of animals alive at the toxicity check (mostly the fifth day); where none is given, no animal had died by that day.

The test system of the experiment is P388 leukemia ip, CD2F1 mice, survival T/C. The experiment in a line: NCI In Vivo Anticancer Drug Screen. Data for tumor model P388 Leukemia (intraperitoneal) in CD2F1 (CDF1) mice. To be noted: T/C endpoint: median survival time, higher T/C = longer survival.
[1] abbreviates: dose: 100.0 mg/kg/injection, schedule: Q01DX009 (ip), vehicle: saline with Tween-80.
Setting [2] is: dose: 200.0 mg/kg/injection, schedule: Q01DX009 (ip), vehicle: Klucel (hydroxypropylcellulose) (HPC).
[3] abbreviates: dose: 120.0 mg/kg/injection, schedule: Q01DX005 (ip), vehicle: saline with Tween-80.
Where [4] appears, read: dose: 240.0 mg/kg/injection, schedule: Q01DX005 (ip), vehicle: saline with Tween-80.
The mark [5] stands for this setting: dose: 25.0 mg/kg/injection, schedule: Q01DX009 (ip), vehicle: other.
The mark [6] stands for this setting: dose: 200.0 mg/kg/injection, schedule: Q01DX005 (ip), vehicle: saline with Tween-80.
Where [7] appears, read: dose: 200.0 mg/kg/injection, schedule: Q01DX009 (ip), vehicle: saline with Tween-80.
Where [8] appears, read: dose: 60.0 mg/kg/injection, schedule: Q01DX005 (ip), vehicle: saline with Tween-80.

Take `C[n+]1ccc2cc(-c3ccccc3)c3ccccc3c2c1`: the survivor count is, setting by setting: (dose: 12.5 mg/kg/injection, schedule: Q01DX009 (ip), vehicle: saline) 6 of 6; (dose: 25.0 mg/kg/injection, schedule: Q01DX009 (ip), vehicle: saline) 5 of 6; (dose: 50.0 mg/kg/injection, schedule: Q01DX009 (ip), vehicle: saline) 1 of 6.

On to `Clc1ccc(/C=N\N=C\c2ccc(Cl)c(Cl)c2)cc1Cl`, for which the survivor count under setting [1] is 6 of 6.

`CCCCN(CCCC)C(Cl)=Nc1ccccc1`: under “dose: 50.0 mg/kg/injection, schedule: Q01DX009 (ip), vehicle: Klucel (hydroxypropylcellulose) (HPC)”, the T/C is 131 % of control [5 of 6 alive]. The survivor count is, setting by setting: (dose: 100.0 mg/kg/injection, schedule: Q01DX009 (ip), vehicle: Klucel (hydroxypropylcellulose) (HPC)) 1 of 6; under setting [2], 2 of 6.

`COc1ccc(C(=O)CSC(=S)N2CCCCC2)cc1`: the survivor count under setting [2] was 6 of 6.

Turning to `Oc1c(Cl)c2nc3ccccc3nc2c2ccccc12`, the survivor count by setting is: under setting [3], 6 of 6; under setting [4], 0 of 6.

`Cc1cc(NCCCCNCCCNc2cc(C)nc3cc([N+](=O)[O-])ccc23)c2ccc([N+](=O)[O-])cc2n1`: the T/C is 128 % of control (dose: 1.56 mg/kg/injection, schedule: Q01DX009 (ip), vehicle: other); 130 % of control (dose: 3.13 mg/kg/injection, schedule: Q01DX009 (ip), vehicle: other); 139 and 140 % of control (dose: 6.25 mg/kg/injection, schedule: Q01DX009 (ip), vehicle: other); 140 % of control (dose: 12.5 mg/kg/injection, schedule: Q01DX009 (ip), vehicle: other); 132 % of control under setting [5]. The survivor count was 6 of 6 under setting [5]; 0 of 6 and 2 of 6 (dose: 50.0 mg/kg/injection, schedule: Q01DX009 (ip), vehicle: other); 0 of 6 (dose: 100.0 mg/kg/injection, schedule: Q01DX009 (ip), vehicle: other); 0 of 6 (dose: 200.0 mg/kg/injection, schedule: Q01DX009 (ip), vehicle: other).

For the compound `Cc1nn(C)c(=O)c(N)c1-c1cc(-c2ccc(Cl)cc2)n[nH]1`, the survivor count under setting [4] is on record as 0 of 6.

With `CC(C)(C)c1cc2c3c(c1)C(C(F)(F)F)(C(F)(F)F)OS3(=O)(O)OC2(C(F)(F)F)C(F)(F)F`, under setting [6], the survivor count is given as 0 of 6.

Take `O=C1CC[C@H]2[C@@H]3N1c1ccccc1[C@@]31CCN3C/C(=C/CBr)[C@@H]2C[C@H]31`: the survivor count (dose: 30.0 mg/kg/injection, schedule: Q01DX005 (ip), vehicle: Klucel (hydroxypropylcellulose) (HPC)) is 1 of 6; the survivor count (dose: 60.0 mg/kg/injection, schedule: Q01DX005 (ip), vehicle: Klucel (hydroxypropylcellulose) (HPC)) was 0 of 6; the survivor count (dose: 120.0 mg/kg/injection, schedule: Q01DX005 (ip), vehicle: Klucel (hydroxypropylcellulose) (HPC)) is listed as 0 of 6; the survivor count (dose: 240.0 mg/kg/injection, schedule: Q01DX005 (ip), vehicle: Klucel (hydroxypropylcellulose) (HPC)) is given as 0 of 6.

`O=C1C2CCC(C2)[CH]1[Hg][Cl]` (configuration not stated): the survivor count by setting is: (dose: 50.0 mg/kg/injection, schedule: Q01DX009 (ip), vehicle: saline with Tween-80) 2 of 6; under setting [1], 0 of 6; under setting [7], 0 of 6.

For the compound `Cc1ccc(C(C)(N=[N+]=[N-])c2ccccc2)cc1C` (configuration not stated), the survivor count under setting [7] is given as 4 of 6.

Regarding `C=CCNC(=S)NNC(=O)CNC(c1ccc(OC)cc1)C(CC)c1ccc(OC)cc1` (configuration not stated), where the note is “dose: 400.0 mg/kg/injection, schedule: Q01DX001 (ip), vehicle: saline with Tween-80”, the survivor count is recorded as 2 of 6.

For `Cn1nc(-c2ccc(S(=O)(=O)F)cc2)s/c1=N/NC(=O)c1ccccc1`, the survivor count (dose: 240.0 mg/kg/injection, schedule: Q01DX005 (ip), vehicle: Klucel + Tween-80) is given as 6 of 6.

As for `O=C(c1ccccc1)c1no[n+]([O-])c1C(=O)c1ccccc1`, the T/C is, setting by setting: (dose: 6.25 mg/kg/injection, schedule: Q01DX009 (ip), vehicle: Klucel (hydroxypropylcellulose) (HPC)) 129 % of control; (dose: 12.5 mg/kg/injection, schedule: Q01DX009 (ip), vehicle: Klucel (hydroxypropylcellulose) (HPC)) 129 % of control. In addition, the survivor count (dose: 25.0 mg/kg/injection, schedule: Q01DX009 (ip), vehicle: Klucel (hydroxypropylcellulose) (HPC)) was 0 of 6 and 3 of 6.

On to `CC(=O)Nc1ccc(/C=C/c2ccc(N=C=S)c(S(=O)(=O)O)c2)c(S(=O)(=O)O)c1`, for which the T/C under setting [8] was 126 % of control and the T/C under setting [3] is 126 % of control. Moreover, under setting [4], the survivor count is on record as 0 of 6.

As to `COCc1nnc2c(N)nccn12`, the survivor count (dose: 400.0 mg/kg/injection, schedule: Q01DX001 (ip), vehicle: Klucel (hydroxypropylcellulose) (HPC)) was 0 of 6.

Consider `Nc1nc2c(ncn2C2OC(CO)C(O)C2O)c(=O)[nH]1` (configuration not stated), for which the T/C reads like this: (dose: 50.0 mg/kg/injection, schedule: Q04DX003 (ip), vehicle: saline with Tween-80) 126 % of control; (dose: 100.0 mg/kg/injection, schedule: Q04DX003 (ip), vehicle: saline with Tween-80) 125 and 143 % of control. The survivor count (dose: 200.0 mg/kg/injection, schedule: Q04DX003 (ip), vehicle: saline with Tween-80) is listed as 2 of 6.

In the case of `c1ccc2c[n+](CCCCCCCCCC[n+]3ccc4ccccc4c3)ccc2c1`, the survivor count (dose: 10.0 mg/kg/injection, schedule: Q01DX009 (ip), vehicle: saline) is reported as 6 of 6.

For `N=C(N)c1ccc(NC(=O)c2cc3ccc(C(=N)N)cc3o2)cc1`, the survivor count is 0 of 6 (dose: 100.0 mg/kg/injection, schedule: Q04DX003 (ip), vehicle: suspension in saline); 0 of 6 (dose: 200.0 mg/kg/injection, schedule: Q04DX003 (ip), vehicle: suspension in saline); 0 of 6 (dose: 400.0 mg/kg/injection, schedule: Q04DX003 (ip), vehicle: suspension in saline).

With `CN1CC[CH2][Sn]([Cl])([Cl])[CH2]CC1`, the survivor count reads like this: (dose: 15.0 mg/kg/injection, schedule: Q01DX005 (ip), vehicle: saline with Tween-80) 0 of 6; under setting [8], 0 of 6; under setting [3], 0 of 6; under setting [4], 0 of 6.

As for `CCN(CC)CCCNc1c2c(nc3c(Cl)cccc13)CCCC2`, the survivor count under setting [6] was 1 of 6.

`COc1ccc(C(SCC(N)C(=O)O)(c2ccccc2)c2ccccc2)cc1` (configuration not stated): the survivor count (dose: 150.0 mg/kg/injection, schedule: Q04DX003 (ip), vehicle: Klucel (hydroxypropylcellulose) (HPC)) is reported as 5 of 6.

For the compound `CNC(=O)Nc1ccn(C(=O)NC)c(=O)n1`, the survivor count (dose: 400.0 mg/kg/injection, schedule: Q04DX002 (ip), vehicle: Klucel (hydroxypropylcellulose) (HPC)) was 2 of 6.

`CC1=CC2N(C=C1)C(c1cccc([N+](=O)[O-])c1)=NON2c1cc(C)ccn1` (configuration not stated): the survivor count (dose: 50.0 mg/kg/injection, schedule: Q01DX005 (ip), vehicle: saline with Tween-80) was 6 of 6.

`Cc1ccc2c(c1)C(=O)c1cc3c(cc1C2=O)OCO3`: the survivor count is on record as 6 of 6 under setting [8] and 6 of 6 under setting [3].

Take `O=P(CCCCBr)(NCc1ccccc1)c1ccccc1` (configuration not stated): where the note is “dose: 400.0 mg/kg/injection, schedule: Q04DX003 (ip), vehicle: Klucel (hydroxypropylcellulose) (HPC)”, the survivor count was 0 of 6.

For `CC1=CC(=O)C(O)C2(C)C1CC1OC(=O)C(OC3OC(CO)C(O)C(O)C3O)C3C(C)C(O)C4(O)OCC13C42` (configuration not stated), the survivor count is recorded as 2 of 6 (dose: 1.0 mg/kg/injection, schedule: Q01DX005 (ip), vehicle: water); 1 of 6 (dose: 2.0 mg/kg/injection, schedule: Q01DX005 (ip), vehicle: water); 0 of 6 (dose: 2.13 mg/kg/injection, schedule: Q01DX005 (ip), vehicle: water); 0 of 6 (dose: 4.25 mg/kg/injection, schedule: Q01DX005 (ip), vehicle: water); 0 of 6 (dose: 8.5 mg/kg/injection, schedule: Q01DX005 (ip), vehicle: water); 0 of 5 (dose: 17.0 mg/kg/injection, schedule: Q01DX005 (ip), vehicle: water).
